PubChem BioAssay AID686938, Drosophila RNAi Screening Center – 2013
Assay: 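Fly genes required for calcium entry once internal stores are emptied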 (primary screen). Cell system: Drosophila S2R+ cells. Knock-down reagent: long dsRNA against Drosophila genes, about 0.25 µg dsRNA per well, roughly 10,000 cells. Time to read-out: 5 days of knock-down before the calcium assay. Challenge: thapsigargin (SERCA pump blocker) to empty calcium stores; entry signal taken 4 min after adding it. Read-out: 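Per-well fluo-4 fluorescence in two replicates, unnormalised, measured in resting cells and 4 min after store depletion by the SERCA blocker thapsigargin; ratio of the two present in few wells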. Scale: calcium entry signal: higher = stronger calcium signal after store depletion; resting calcium signal: higher = higher resting calcium signal. Units: calcium entry signal in fluorescence units; resting calcium signal in fluorescence units. Call rule: 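Hit if the duplicate-averaged plate z-score for entry over resting signal is under −3; wells with weak total dye signal (Fmax z < −2) or more than 5 off-targets removed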. Meaning of the calls: active = strongly reduced calcium entry; inactive = no strong reduction.
In all, the deposit lists about 23,000 reagents; this is an unselected part of those with a known target gene and a result. Over the whole deposit, 75 (0.33%) were called active. 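Raw plate signals without normalisation; calls rest on plate z-scores that were not deposited; ratio present for only 364 wells.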 A plus sign joins genes that one reagent is predicted to hit. Not stated in the record: the dose of the treatment.

Depletion of CG13297 [DRSC09971] gave: calcium entry signal, replicate 1 = 2.88e7; calcium entry signal, replicate 2 = 3.91e7; resting calcium signal, replicate 1 = 1.39e7; resting calcium signal, replicate 2 = 1.59e7; inactive. Depletion of CG5757 [DRSC06951] resulted in: calcium entry signal, replicate 1 = 4.06e7; calcium entry signal, replicate 2 = 4.02e7; resting calcium signal, replicate 1 = 1.88e7; resting calcium signal, replicate 2 = 1.90e7; inactive. Knock-down of CG10576 [DRSC09745] came out at: calcium entry signal, replicate 1 = 3.26e7; calcium entry signal, replicate 2 = 2.28e7; resting calcium signal, replicate 1 = 2.30e7; resting calcium signal, replicate 2 = 1.03e7; inactive. Knock-down of CG9555 [DRSC03264] resulted in: calcium entry signal, replicate 1 = 2.24e7; calcium entry signal, replicate 2 = 3.22e7; resting calcium signal, replicate 1 = 1.07e7; resting calcium signal, replicate 2 = 1.42e7; inactive. For CG8320 + ATPCL [DRSC07147], the entry reads calcium entry signal, replicate 1 = 3.54e7; calcium entry signal, replicate 2 = 5.72e7; resting calcium signal, replicate 1 = 1.66e7; resting calcium signal, replicate 2 = 2.64e7; inactive. Against CG9003 [DRSC07317] the deposit lists calcium entry signal, replicate 1 = 3.28e7; calcium entry signal, replicate 2 = 3.58e7; resting calcium signal, replicate 1 = 1.89e7; resting calcium signal, replicate 2 = 1.86e7; inactive.

For Vha100-3 [DRSC05760] the deposit lists calcium entry signal, replicate 1 = 3.54e7; calcium entry signal, replicate 2 = 4.37e7; resting calcium signal, replicate 1 = 1.68e7; resting calcium signal, replicate 2 = 2.12e7; inactive. Silencing of CG44774 [DRSC18342] resulted in: calcium entry signal, replicate 1 = 2.82e7; calcium entry signal, replicate 2 = 3.77e7; resting calcium signal, replicate 1 = 1.47e7; resting calcium signal, replicate 2 = 1.65e7; inactive. Depletion of Arms [DRSC03856] resulted in: calcium entry signal, replicate 1 = 3.25e7; calcium entry signal, replicate 2 = 4.50e7; resting calcium signal, replicate 1 = 1.51e7; resting calcium signal, replicate 2 = 1.92e7; inactive. Silencing of Arms [DRSC03857] resulted in: calcium entry signal, replicate 1 = 3.26e7; calcium entry signal, replicate 2 = 6.56e7; resting calcium signal, replicate 1 = 1.49e7; resting calcium signal, replicate 2 = 2.83e7; inactive. For Arms [DRSC04052] the deposit lists calcium entry signal, replicate 1 = 4.58e7; resting calcium signal, replicate 1 = 2.16e7; inactive. Against Arms [DRSC04256], the values are calcium entry signal, replicate 1 = 2.32e7; calcium entry signal, replicate 2 = 3.02e7; resting calcium signal, replicate 1 = 1.49e7; resting calcium signal, replicate 2 = 1.89e7; inactive.

Silencing of CG43106 [DRSC04279] came out at: calcium entry signal, replicate 1 = 3.56e7; calcium entry signal, replicate 2 = 2.64e7; resting calcium signal, replicate 1 = 1.77e7; resting calcium signal, replicate 2 = 1.35e7; inactive. Against CG10470 [DRSC02061], the entry reads calcium entry signal, replicate 1 = 4.74e7; calcium entry signal, replicate 2 = 4.74e7; resting calcium signal, replicate 1 = 2.31e7; resting calcium signal, replicate 2 = 2.14e7; inactive. Ppa [DRSC04598] gave calcium entry signal, replicate 1 = 3.97e7; calcium entry signal, replicate 2 = 5.44e7; resting calcium signal, replicate 1 = 2.01e7; resting calcium signal, replicate 2 = 2.48e7; inactive.

Copied from above, 2 entries:
Vha100-3 [DRSC05760] | calcium entry signal, replicate 1 = 3.54e7; calcium entry signal, replicate 2 = 4.37e7; resting calcium signal, replicate 1 = 1.68e7; resting calcium signal, replicate 2 = 2.12e7; Call = inactive
CG44774 [DRSC18342] | calcium entry signal, replicate 1 = 2.82e7; calcium entry signal, replicate 2 = 3.77e7; resting calcium signal, replicate 1 = 1.47e7; resting calcium signal, replicate 2 = 1.65e7; Call = inactive

The listing continues:
Against CG5715 [DRSC15860] the deposit lists calcium entry signal, replicate 1 = 3.41e7; calcium entry signal, replicate 2 = 4.95e7; resting calcium signal, replicate 1 = 1.98e7; resting calcium signal, replicate 2 = 2.04e7; inactive. Silencing of CG46385 [DRSC06425] resulted in: calcium entry signal, replicate 1 = 2.44e7; calcium entry signal, replicate 2 = 3.29e7; resting calcium signal, replicate 1 = 1.47e7; resting calcium signal, replicate 2 = 1.70e7; inactive. After knock-down of CG46385 [DRSC06557], the record shows calcium entry signal, replicate 1 = 3.81e7; calcium entry signal, replicate 2 = 4.24e7; resting calcium signal, replicate 1 = 1.70e7; resting calcium signal, replicate 2 = 1.66e7; inactive. CG30344 [DRSC22510] scored calcium entry signal, replicate 1 = 4.49e7; calcium entry signal, replicate 2 = 3.40e7; resting calcium signal, replicate 1 = 2.61e7; resting calcium signal, replicate 2 = 1.63e7; inactive. dgt1 [DRSC15301] gave calcium entry signal, replicate 1 = 4.18e7; calcium entry signal, replicate 2 = 4.35e7; resting calcium signal, replicate 1 = 2.47e7; resting calcium signal, replicate 2 = 2.37e7; inactive. Against wrd [DRSC16337] the deposit lists calcium entry signal, replicate 1 = 1.99e7; calcium entry signal, replicate 2 = 2.65e7; resting calcium signal, replicate 1 = 1.21e7; resting calcium signal, replicate 2 = 5.17e7; inactive.

Silencing of wrd [DRSC16344] came out at: calcium entry signal, replicate 1 = 3.40e7; calcium entry signal, replicate 2 = 4.62e7; resting calcium signal, replicate 1 = 5.81e7; resting calcium signal, replicate 2 = 2.07e7; inactive. For wrd [DRSC23189], the entry reads calcium entry signal, replicate 1 = 3.69e7; calcium entry signal, replicate 2 = 4.70e7; resting calcium signal, replicate 1 = 1.75e7; resting calcium signal, replicate 2 = 1.97e7; inactive. With knock-down of Klp59D [DRSC04118], the screen gave calcium entry signal, replicate 1 = 3.66e7; calcium entry signal, replicate 2 = 4.29e7; resting calcium signal, replicate 1 = 1.98e7; resting calcium signal, replicate 2 = 2.01e7; inactive. Depletion of TwdlH [DRSC14735] gave: calcium entry signal, replicate 1 = 1.49e7; calcium entry signal, replicate 2 = 3.36e7; resting calcium signal, replicate 1 = 8.60e6; resting calcium signal, replicate 2 = 1.48e7; inactive. With knock-down of CenB1A [DRSC16923] the results were calcium entry signal, replicate 1 = 4.76e7; calcium entry signal, replicate 2 = 2.02e7; resting calcium signal, replicate 1 = 2.53e7; resting calcium signal, replicate 2 = 1.19e7; inactive. Silencing of Got2 [DRSC00643] came out at: calcium entry signal, replicate 1 = 9.08e7; resting calcium signal, replicate 1 = 2.39e7; inactive.
